Experimental data published in the supplement of paper PMC12889115.
The list shows a part of the results. These are raw signals, not scaled to a control.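 Primary screen: polymyxin B was added at a level permeabilizing Salmonella outer membranes while sparing inner membranes. DMSO wells, both with and without polymyxin B, established maximum growth. Plate-to-plate variation meant each plate was ranked on its own, and the lowest-OD600 compounds were selected as hits.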

Tested on: Salmonella enterica serovar Typhimurium SL1344
Test: bacterial growth OD600 after 18 h with compound and polymyxin B; higher = more bacterial growth (less inhibition)
Conditions: 50 µM, Mueller-Hinton broth

Compound | bacterial growth OD600 (polymyxin B 1 µg/mL) | bacterial growth OD600 (polymyxin B 0.75 µg/mL)
CN1CCCC2(CCN(C(=O)c3ccc4c(c3)OCO4)C2)C1=O (stereo not given) | 0.939 | –
CN(CCC1CCOCC1)C(=O)C1CCC(=O)N(C2CCCCCC2)C1 (stereo not given) | 1.18 | –
CC(C)CN1CCC(C2CCN(C(=O)c3ccnnc3)C2)CC1 (stereo not given) | – | 0.826
CCC(O)CNC(=O)c1ccc(OC2CCN(C(=O)C3CC3)CC2)cc1 (stereo not given) | 0.972 | –
C=CCC(=O)N1CCC2(CCCN(CCCc3ccccc3)C2=O)C1 (stereo not given) | 0.972 | –
COCCN(CC1CCN(Cc2ccccc2F)CC1)C(=O)c1cc(C2CC2)n[nH]1 | 0.836 | –
Cc1c(CC(=O)NC(C)C2CC2)c2c(n1Cc1ccccc1)CCCC2=O (stereo not given) | 1.22 | –
COc1ccc(CN2CCCC(Nc3ccc(C)c(C)c3)C2)cc1O (stereo not given) | 0.819 | –
O=C(Nc1ccnn1C1CCN(C(=O)Cc2ccc(F)c(F)c2)CC1)C1CC1 | 0.947 | –
O=C(c1cc2ccccc2oc1=O)N1CCCC(Nc2ccc3c(c2)OCCO3)C1 (stereo not given) | 0.932 | –
Cc1cccc(C(=O)N2CCOc3ccc(C(O)CCc4ccccc4)cc3C2)c1C (stereo not given) | – | 0.51
O=C(c1ccccc1Cl)N1CCCC(N2CCN(c3ccccc3F)CC2)C1 (stereo not given) | 0.943 | –
COc1cc(C)c(CNC2CCCc3c2cnn3-c2ccccn2)cc1C (stereo not given) | – | 0.755
CC[C@H](C)[C@H](NC1CCN(c2ccc(NC(=O)C3CCCC3)cc2)CC1)C(=O)OC | – | 0.805
CCN1CCCC1CNC(=O)CCC1CCN(C2CCSCC2)CC1 (stereo not given) | – | 0.81
CCCN1CCC(NC2CC(=O)N(C3CCCCCC3)C2)CC1 (stereo not given) | 0.791 | –
Cc1nnc(-c2cccc(NC(=O)C3CCN(C(=O)C4CCC4)CC3)c2)s1 | – | 0.859
CCOC(=O)CCNC(=O)c1cc(Cl)ccc1OC1CCN(C(C)=O)CC1 | 0.948 | –
CCOC(=O)C1(Cc2cccc(OC)c2)CCCN(C(=O)CCc2c(C)nn(C)c2C)C1 (stereo not given) | – | 0.829
COc1ccc2ccc(OCc3nc(C(=O)N(C)Cc4cccnc4)co3)cc2c1 | 0.832 | –
COCCO[C@H]1[C@H](NC(=O)C(C)C)c2ccccc2C12CCN(Cc1cccc(F)c1F)CC2 | – | 0.793
OCC1(Cc2ccccc2F)CCCN(Cc2cnn(-c3ccccc3)c2)C1 (stereo not given) | 0.848 | –
CC(C)(C)CN1CCCC(O)(CNCc2ccc(-n3cncn3)cc2)C1=O (stereo not given) | 1.03 | –
O=C(CCC1CCN(C(=O)C2CCCO2)CC1)NCc1cccc(C(F)(F)F)c1 (stereo not given) | 0.972 | –
CN(CC(O)COc1ccccc1CN1CCCCO1)C1CCCCC1 (stereo not given) | 0.941 | –
CCCn1c(C)c(CC(=O)NC(C)Cn2cncn2)c2c1CC(C)(C)CC2=O (stereo not given) | 0.796 | –
Cc1noc(C)c1CCC(=O)NCc1cccnc1-n1cnc2ccccc21 | 0.919 | –
Cn1nccc1C(=O)N1CCCC(CCc2ccc(F)cc2F)C1 (stereo not given) | – | 0.578
CCCCC1CN(CCNC(=O)C(c2cccnc2)N2CCOCC2)Cc2ccccc2O1 (stereo not given) | – | 0.797
CN(Cc1cccnc1)C(=O)CC(c1ccccc1)c1ccc(Cl)cc1 (stereo not given) | 0.035 | –

2 compounds picked at random from those above:
Compound | bacterial growth OD600 (polymyxin B 1 µg/mL) | bacterial growth OD600 (polymyxin B 0.75 µg/mL)
Cc1nnc(-c2cccc(NC(=O)C3CCN(C(=O)C4CCC4)CC3)c2)s1 | – | 0.859
CCCn1c(C)c(CC(=O)NC(C)Cn2cncn2)c2c1CC(C)(C)CC2=O (stereo not given) | 0.796 | –
